This is one part of the list.

Protein sequences, listed by entry. Tags and fused reporters are not part of them.
UniProt Q0JBA9, entry or part of it: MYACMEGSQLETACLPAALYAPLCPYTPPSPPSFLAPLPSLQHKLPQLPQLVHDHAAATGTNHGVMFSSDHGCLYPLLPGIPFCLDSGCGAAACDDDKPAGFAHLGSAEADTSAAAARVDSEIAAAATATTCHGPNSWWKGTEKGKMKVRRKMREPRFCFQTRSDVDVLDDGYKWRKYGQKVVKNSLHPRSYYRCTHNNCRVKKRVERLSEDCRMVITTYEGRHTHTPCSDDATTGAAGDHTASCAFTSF

The experiment concerns the target OsWRKY34 (Oryza sativa, UniProt Q0JBA9 1-250). The experiment in a line: protein-binding microarray (RPBM); PBS, 2% BSA, 51.3 ng/ul salmon testes DNA, 50 uM zinc acetate, 200 nM TF, 25 C, 1 h; high values mean tight binding. To be noted: protein: recombinant; tags: N-terminal polyhistidine and DsRed monomer fusion (pET32a); label: CyDye5-dUTP incorporated in the synthesized complementary strand; 3' TTTTT single-stranded linker to array surface; dsDNA, one strand shown. The method in brief:
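Using Ni–NTA, transcription factors fused N-terminally to polyhistidine and DsRed were purified after expression in E. coli BL21-CodonPlus. These were incubated at 200 nM with a blocked, double-stranded custom Agilent array for 1 h at 25 °C in a buffer containing 50 µM zinc acetate, and the array was washed. The binding signal is per-feature fluorescence intensity (arbitrary units) on an Axon 4000B scanner.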
In the case of “CAAAAGTAAAACCATCCCTTGACTTTTGATCGATCGATTGCGGAGTCACCTAGTGCAG”, the binding signal is 9470 fluorescence intensity (a.u.).

Regarding “TGGCACCTTTGGCTACATTGCTCCAGGTATCTACTATATTCGGAGTCACCTAGTGCAG”, the binding signal was 8120 fluorescence intensity (a.u.).

Consider “AGCAACATCTTTATAATCTCTCTGCTGGATTAATTATTTTCGGAGTCACCTAGTGCAG”, for which the binding signal is 8470 fluorescence intensity (a.u.).

For the sequence “ACTGTAATAAGTTTGGGACTGTGCTGGTTGTCCTCGATCCCGGAGTCACCTAGTGCAG”, the binding signal was 8080 fluorescence intensity (a.u.).

As to “AAGAACATTCTTCCTGACTATTTTCTGGGTTTTCTGTTCTCGGAGTCACCTAGTGCAG”, the binding signal is 10300 fluorescence intensity (a.u.).

Take “GTGGCGTGGTGTGGTGGGGTCGCGGCGCTGCGCGCGGACGCGGAGTCACCTAGTGCAG”: the binding signal is 8600 fluorescence intensity (a.u.).

Take “TCTGCAGCCAGAGCCAGCCAACCGAGCACACATCTTGTTACGGAGTCACCTAGTGCAG”: the binding signal is 9740 fluorescence intensity (a.u.).

Consider “TTCTTTCTTCTCTGAATGTATCTCTACATATGCACGAATGCGGAGTCACCTAGTGCAG”, for which the binding signal is 8910 fluorescence intensity (a.u.).

“TCCTCCAATCGGAGAGGTGTGCTCGCGTGTTTGGTTTGACCGGAGTCACCTAGTGCAG”: the binding signal is 10400 fluorescence intensity (a.u.).

As for “CTAGTGATCAGAATCCATCTCCTCGTTTCCACCTCTGTTGCGGAGTCACCTAGTGCAG”, the binding signal was 8310 fluorescence intensity (a.u.).

As to “GTCACAACACCACGTTGACCTGCGATTCTGCGAGCTGAACCGGAGTCACCTAGTGCAG”, the binding signal was 8290 fluorescence intensity (a.u.).

For the sequence “GATGATCAGGCTTTTGACTTTGCTCGGTATAGTCACTCATCGGAGTCACCTAGTGCAG”, the binding signal is 8390 fluorescence intensity (a.u.).

Regarding “CCGGCCCATCGCTTTGTCGCGACGCGCGCGCATCGATCCCCGGAGTCACCTAGTGCAG”, the binding signal is 8760 fluorescence intensity (a.u.).

With “TAACATTGCCTGGTTCAGGAATTCATTTATTTTGTTGTTTCGGAGTCACCTAGTGCAG”, the binding signal was 8910 fluorescence intensity (a.u.).

As for “GCAGCGCCCGTAACCTCGTACGTATCGCCTCGTGGGAAGCCGGAGTCACCTAGTGCAG”, the binding signal was 8050 fluorescence intensity (a.u.).

For “GGAGGCGGGGAAGGGGTCTGGCGGCAGGAAATGAGGAGTCCGGAGTCACCTAGTGCAG”, the binding signal is 13500 fluorescence intensity (a.u.).

As to “GCTAGCTAGCCGTGTTCCTGTTCTTGGTTTCTTTCATCCACGGAGTCACCTAGTGCAG”, the binding signal is 13200 fluorescence intensity (a.u.).

Consider “CATGCCCGCAAACTCCGTCCCCGTCTACCATCTAGATGTCCGGAGTCACCTAGTGCAG”, for which the binding signal is 8192 fluorescence intensity (a.u.).

For “ACGCACAGCTTATCCGATTCCATCCATTCCTCAAGCTCTCCGGAGTCACCTAGTGCAG”, the binding signal was 10100 fluorescence intensity (a.u.).

As to “ATAGCCATCTCACTTCTCTCTGGCTCTGTCCTTCCTGCCACGGAGTCACCTAGTGCAG”, the binding signal is 8220 fluorescence intensity (a.u.).

Regarding “GGTTTTGTACTTATTTTCTATAAATTCGGCTAGTTTAGTACGGAGTCACCTAGTGCAG”, the binding signal is 9460 fluorescence intensity (a.u.).

For the sequence “TATTTTTTGCATTTTGCTCCCTGATTTGAACTGTATTTCTCGGAGTCACCTAGTGCAG”, the binding signal is 8660 fluorescence intensity (a.u.).

For “TAAGGGATGGGATGGTTGGCTTGGATCGAGTATATTTCTTCGGAGTCACCTAGTGCAG”, the binding signal was 18900 fluorescence intensity (a.u.).

Consider “CACCACCACCCCAGTACAAACACCTTGCGTCCTCTCAACTCGGAGTCACCTAGTGCAG”, for which the binding signal was 11200 fluorescence intensity (a.u.).

With “CCTCTTATTCTACTTGTAGCTTTTTTTTTTCTTTCAAATTCGGAGTCACCTAGTGCAG”, the binding signal is 11600 fluorescence intensity (a.u.).

“AAACGCGCGCGCCATTTTTCTTCTTCCCGCGATAAACCGACGGAGTCACCTAGTGCAG”: the binding signal is 9220 fluorescence intensity (a.u.).

Consider “GTGGTTTCATCATGTAAGGGATATCCCCTCGTTTCTTGCACGGAGTCACCTAGTGCAG”, for which the binding signal is 8280 fluorescence intensity (a.u.).

As for “AGCTCTCGCCCGCGTCGTCCGTTTCCGCGCTTTCCCCTGCCGGAGTCACCTAGTGCAG”, the binding signal is 11500 fluorescence intensity (a.u.).

Regarding “CCAAGTGCAGCGCGTCCTCTTCCACTTCCAACATCTACTACGGAGTCACCTAGTGCAG”, the binding signal was 8320 fluorescence intensity (a.u.).

With “CGCCTTCAATGCATCATCTTCGCCTCTCGACTCAATCTGCCGGAGTCACCTAGTGCAG”, the binding signal was 8640 fluorescence intensity (a.u.).

Take “TCTTTCCTGACTTTTAGATCTATTCATCCAACGGCTTATACGGAGTCACCTAGTGCAG”: the binding signal was 9750 fluorescence intensity (a.u.).

On to “TGTGTGCTATTGTTTCGCCTATCCTTACGCGTATAAACCACGGAGTCACCTAGTGCAG”, for which the binding signal was 8530 fluorescence intensity (a.u.).

“GAGAGAGGGGAGGAAGAGAAACGATGGTGGAGGGGAAAGACGGAGTCACCTAGTGCAG”: the binding signal is 8720 fluorescence intensity (a.u.).

Consider “TTCTCTATCCTTTTCTTTCATCTCTTTGGCTGATCTGTGACGGAGTCACCTAGTGCAG”, for which the binding signal is 12000 fluorescence intensity (a.u.).

With “ACAAAACTGAACTCGCTACCACATCAATATACCACCTAGCCGGAGTCACCTAGTGCAG”, the binding signal is 8850 fluorescence intensity (a.u.).

As to “GTGTTTGTTTTGTCATTTGTAGTGAGCTCGCGTGATGAGCCGGAGTCACCTAGTGCAG”, the binding signal was 8880 fluorescence intensity (a.u.).

Take “TTTATTGGAATACTCTCTGCTTCTAATCATTTCGCTGAGCCGGAGTCACCTAGTGCAG”: the binding signal was 8090 fluorescence intensity (a.u.).

On to “CGGCTGGCATCCATCCATCCATTCCACCGTAGTCGTACCCCGGAGTCACCTAGTGCAG”, for which the binding signal was 8670 fluorescence intensity (a.u.).

As to “TGGCCGTCCGTCATCTCCGCCGCCTCCGCCTCCGCCGCCGCGGAGTCACCTAGTGCAG”, the binding signal was 9240 fluorescence intensity (a.u.).

Turning to “AGCTGCAATCTCTTTCTGGATCATCAGTGCAAGACATACTCGGAGTCACCTAGTGCAG”, the binding signal was 9450 fluorescence intensity (a.u.).

In the case of “CCATCCAAGCTTGACCGGGAACCAAACACACCCTTACAAACGGAGTCACCTAGTGCAG”, the binding signal is 8380 fluorescence intensity (a.u.).

With “CACCACTCGCTTCCCTTTTTCCCAGCTGCGTTTTTTTTAACGGAGTCACCTAGTGCAG”, the binding signal is 8610 fluorescence intensity (a.u.).

The values above are taken from PMC7819943, “Rice protein-binding microarrays: a tool to detect cis-acting elements near promoter regions in rice”.
